A short description of the data set: peptide synthesis.
[1] abbreviates: late stage modification step, FA salt.
Setting [2] is: late stage modification step, formic acid salt.

Our source for the step yield values is patent publication US20260274892A1 (RQx Pharmaceuticals, Inc., priority 2017, published 2026).

“(4S,7S,10S)-10-((S)-4-amino-2-(2-(4-(tert-butyl)phenyl)-4,6-dimethylpyrimidine-5-carboxamido)-N-methylbutanamido)-25-(2-aminoethoxy)-N-(cyanomethyl)-16,26-dihydroxy-7-methyl-6,9-dioxo-5,8-diaza-1,2(1,3)-dibenzenacyclodecaphane-4-carboxamide”: the step yield under setting [1] is given as 47.1%.

Take “methyl (4S,7S,10S)-10-((S)-4-(((benzyloxy)carbonyl)amino)-2-((tert-butoxycarbonyl)amino)-N-methylbutanamido)-25-(2-(((benzyloxy)carbonyl)amino)ethoxy)-16,26-dimethoxy-7-methyl-6,9-dioxo-5,8-diaza-1,2(1,3)-dibenzenacyclodecaphane-4-carboxylate”: where the note is “coupling step, FA salt”, the step yield is listed as 85.4%.

For “rac-(8S,11S,14S)-3,18-bis(2- aminoethoxy)-N-(cyanomethyl)-11- methyl-14-[methyl-[rac-(2S)-4- amino-2-[[2-(4-tert-butoxyphenyl)- 4-methyl-pyrimidine-5- carbonyl]amino]butanoyl]amino]- 10,13-dioxo-9,12- diazatricyclo[13.3.1.12,6]icosa- 1(18),2(20),3,5,15(19),16-hexaene- 8-carboxamide”, the step yield under setting [2] came to 67% yield.

With “rac-(8S,11S,14S)-5,18-bis(2- aminoethoxy)-N-(cyanomethyl)-3- hydroxy-11-methyl-14-[methyl-[rac- (2S)-2-[[2-(4-tert-butylphenyl)-4,6- dimethyl-pyrimidine-5- carbonyl]amino]-3- (sulfamoylamino)propanoyl]amino]- 10,13-dioxo-9,12- diazatricyclo[13.3.1.12,6]icosa- 1(18),2(20),3,5,15(19),16-hexaene- 8-carboxamide”, the step yield under setting [1] was 5.9% yield.

Regarding “rac-(8S,11S,14S)- 4,18-bis(2- aminoethoxy)-3- hydroxy-11-methyl- 14-[methyl-[rac- (2S)-4-amino-2-[[2- (4-tert-butylphenyl)- 4,6-dimethyl- pyrimidine-5- carbonyl]amino] butanoyl]amino]- 10,13-dioxo-9,12- diazatricyclo [13.3.1.12,6]icosa- 1(18),2,4,6(20),15(19), 16-hexaene-8- carboxylic acid”, under setting [1], the step yield came out at 98.1%.

Consider “rac-(8S,11S,14S)-N-(cyanomethyl)- 3,18-bis[2-(dimethylamino)ethoxy]- 11-methyl-14-[methyl-[rac-(2S)-4- amino-2-[[2-(4-tert-butylphenyl)-4- methyl-pyrimidine-5- carbonyl]amino]butanoyl]amino]- 10,13-dioxo-9,12- diazatricyclo[13.3.1.12,6]icosa- 1(18),2(20),3,5,15(19),16-hexaene- 8-carboxamide”, for which the step yield under setting [2] was 23%.

With “rac-(8S,11S,14S)-N-(cyanomethyl)- 18-[2-(ethanimidoylamino)ethoxy]- 3-hydroxy-11-methyl-14-[methyl- [rac-(2S)-4-amino-2-[[2-(4-tert- butylphenyl)-4,6-dimethyl- pyrimidine-5- carbonyl]amino]butanoyl]amino]- 10,13-dioxo-9,12- diazatricyclo[13.3.1.12,6]icosa- 1(18),2(20),3,5,15(19),16-hexaene- 8-carboxamide”, the step yield (late stage modification step, over three steps from compound 603-3, TFA salt) is 16% yield over three steps.
